Structures can show the parent of a compound that is named as a salt. Some entries share one result that the patent states for a list of compounds.
Biological target: T1, hGIP-R (Homo sapiens, UniProt P48546)
T1 construct: expressed in transfected cells; host or cells: HEK-293 clonal cell lines
T1 sequence (P48546 22-466): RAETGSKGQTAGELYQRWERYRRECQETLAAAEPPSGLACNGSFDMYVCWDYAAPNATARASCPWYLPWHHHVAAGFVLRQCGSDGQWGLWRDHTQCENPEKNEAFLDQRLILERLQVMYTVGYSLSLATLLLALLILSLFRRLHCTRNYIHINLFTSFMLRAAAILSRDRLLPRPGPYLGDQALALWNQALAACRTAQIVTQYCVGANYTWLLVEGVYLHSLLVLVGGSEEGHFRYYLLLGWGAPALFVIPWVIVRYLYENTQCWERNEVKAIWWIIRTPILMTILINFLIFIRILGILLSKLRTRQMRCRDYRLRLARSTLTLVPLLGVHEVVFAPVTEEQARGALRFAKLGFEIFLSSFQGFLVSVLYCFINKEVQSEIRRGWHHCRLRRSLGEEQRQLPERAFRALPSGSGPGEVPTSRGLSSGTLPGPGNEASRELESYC
Assay: Functional hGIP-R Assay (cAMP formation, HTRF)
Format: cell-based
Settings: cAMP formation in HEK-293 clonal cell lines expressing hGIP-R; 30 min at 37° C.; 0.1% bovine casein; relative EC50 vs. maximal response of human GIP (1-42) OH
In short: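 HEK-293 cells expressing hGIP-R were given a 20-point compound series in DMEM with 0.1% casein, 250 μM IBMX, 1% DMSO, 30 min at 37 °C. cAMP was read by HTRF against a standard curve, expressed as % of human GIP (1-42) OH maximum; EC50 and Emax came from four-parameter fits.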

Row | SMILES | EC50 [nM]
1 | [2H]C([2H])([2H])n1cc(-c2cc(C(F)(F)F)nn2CC(C)(C)NC(=O)[C@@H](Cc2cnn(C(F)F)c2)N2CC[C@@]3(C[C@@H]3c3ccc(-c4cnc5nn(C)cc5c4)cc3)C2=O)cc(F)c1=O [Example 141, (R)-3-(1-(Difluoromethyl)-1H-pyrazol-4-yl)-N-(1-(5-(5-fluoro-1-(methyl-d3)-6-oxo-1,6-dihydropyridin-3-yl)-3-(trifluoromethyl)-1H-pyrazol-1-yl)-2-methylpropan-2-yl)-2-((1R,3R)-1-(4-(2-methyl-2H-pyrazolo[3,4-b]pyridin-5-yl)phenyl)-4-oxo-5-azaspiro[2.4]heptan-5-yl)propanamide] | ≤ 300
2 | Cc1cn2cc(-c3ccc(C4CC45CCN([C@H](Cc4cnn(C(F)F)c4)C(=O)NC(C)(C)Cn4nc(C(F)(F)F)cc4-c4cnc(C)nc4)C5=O)c(C)n3)cnc2n1 (single isomer, unassigned; isomer 1) [Example 110] | ≤ 300
3 | CC(C)(Cn1nc(C(F)(F)F)cc1-c1cn[nH]n1)NC(=O)[C@@H](Cc1cnc2ncccn12)NC(=O)[C@H]1C[C@@H]1c1ccc(-c2cnc3nc(C(F)(F)F)cn3c2)cc1 [Example 68, (1S,2S)-N—((R)-1-((1-(5-(2H-1,2,3-Triazol-4-yl)-3-(trifluoromethyl)-1H-pyrazol-1-yl)-2-methylpropan-2-yl)amino)-3-(imidazo[1,2-a]pyrimidin-3-yl)-1-oxopropan-2-yl)-2-(4-(2-(trifluoromethyl)imidazo[1,2-a]pyrimidin-6-yl)phenyl)cyclopropane-1-carboxamide] | ≤ 300
4 | Cn1cc(C[C@@H](NC(=O)[C@H]2C[C@@H]2c2ccc(-c3cnc4nn(C)cc4c3)cc2)C(=O)NC(C)(C)Cn2nc(C(F)(F)F)cc2-c2cnn(C)n2)cn1 [Example 66, (1S,2S)-N—((R)-1-((2-Methyl-1-(5-(2-methyl-2H-1,2,3-triazol-4-yl)-3-(trifluoromethyl)-1H-pyrazol-1-yl)propan-2-yl)amino)-3-(1-methyl-1H-pyrazol-4-yl)-1-oxopropan-2-yl)-2-(4-(2-methyl-2H-pyrazolo[3,4-b]pyridin-5-yl)phenyl)cyclopropane-1-carboxamide] | ≤ 300
5 | Cn1cc(-c2cc(C(F)(F)F)nn2CC(C)(C)NC(=O)[C@@H](Cc2cnn(C(F)F)c2)N2CC[C@@]3(C[C@@H]3c3ccc(-c4cnc5nc(C(C)(C)O)ccc5c4)cc3)C2=O)ccc1=O (single isomer, unassigned; isomer 1) [Example 104] | ≤ 300
6 | CC(C)(Cn1cc(C(F)(F)F)cn1)NC(=O)[C@@H](Cc1cnc2ncccn12)NC(=O)[C@H]1C[C@@H]1c1ccc(-c2cnc3nn(CC4CCC4)cc3c2)cc1 [Example 77, (1S,2S)-2-(4-(2-(Cyclobutylmethyl)-2H-pyrazolo[3,4-b]pyridin-5-yl)phenyl)-N-((R)-3-(imidazo[1,2-a]pyrimidin-3-yl)-1-((2-methyl-1-(4-(trifluoromethyl)-1H-pyrazol-1-yl)propan-2-yl)amino)-1-oxopropan-2-yl)cyclopropane-1-carboxamide] | ≤ 300
7 | Cc1nc(-c2cnc3nc(C4CC4)cn3c2)ccc1[C@H]1C[C@@]12CCN([C@H](Cc1cnn(C(F)F)c1)C(=O)NC(C)(C)Cn1nc(C(F)(F)F)cc1-c1ccc(C(C)(C)OP(=O)(O)O)nc1)C2=O [Example 197, 2-(5-(1-(2-((R)-2-((1R,3R)-1-(6-(2-Cyclopropylimidazo[1,2-a]pyrimidin-6-yl)-2-methylpyridin-3-yl)-4-oxo-5-azaspiro[2.4]heptan-5-yl)-3-(1-(difluoromethyl)-1H-pyrazol-4-yl)propanamido)-2-methylpropyl)-3-(trifluoromethyl)-1H-pyrazol-5-yl)pyridin-2-yl)propan-2-yl dihydrogen phosphate, ammonia salt] | ≤ 300
8 | Cn1cc(-c2cc(C(F)(F)F)nn2CC(C)(C)NC(=O)[C@@H](Cc2cnn(C(F)F)c2)N2CC[C@@]3(C[C@@H]3c3ccc(-c4cnc5nn(CCO)cc5c4)cc3F)C2=O)cc(F)c1=O (single isomer, unassigned; isomer 1) [Example 107] | ≤ 300
9 | [2H]C([2H])([2H])N(C(=O)[C@H]1C[C@@H]1c1cnc(-c2cnc3nn(C)cc3c2)nc1C(F)(F)F)[C@H](Cc1cnn(C(F)F)c1)C(=O)NC(C)(C)Cn1nc(C(F)(F)F)cc1-c1cc(F)c(=O)n(C)c1 [Example 139, (1S,2S)-N-((R)-3-(1-(Difluoromethyl)-1H-pyrazol-4-yl)-1-((1-(5-(5-fluoro-1-methyl-6-oxo-1,6-dihydropyridin-3-yl)-3-(trifluoromethyl)-1H-pyrazol-1-yl)-2-methylpropan-2-yl)amino)-1-oxopropan-2-yl)-N-(methyl-d3)-2-(2-(2-methyl-2H-pyrazolo[3,4-b]pyridin-5-yl)-4-(trifluoromethyl)pyrimidin-5-yl)cyclopropane-1-carboxamide] | ≤ 300
10 | Cn1cc2cc(-c3ccc([C@H]4C[C@@H]4C(=O)N[C@H](Cc4cnc5ncccn45)C(=O)NC(C)(C)Cn4nc(C(F)(F)F)cc4-c4ccc(=O)n(C)c4)cc3)cnc2n1 [Example 62, (1S,2S)-N-((R)-3-(imidazo[1,2-a]pyrimidin-3-yl)-1-((2-methyl-1-(5-(1-methyl-6-oxo-1,6-dihydropyridin-3-yl)-3-(trifluoromethyl)-1H-pyrazol-1-yl)propan-2-yl)amino)-1-oxopropan-2-yl)-2-(4-(2-methyl-2H-pyrazolo[3,4-b]pyridin-5-yl)phenyl) cyclopropane-1-carboxamide] | ≤ 300
11 | CC(C)(Cn1cc(C(F)(F)F)cn1)NC(=O)[C@@H](Cc1cnc2ncccn12)NC(=O)[C@H]1C[C@@H]1c1ccc(-c2cnc3nc(C4(C)CC4)cn3c2)cc1 [Example 81, (1S,2S)-N-((R)-3-(Imidazo[1,2-a]pyrimidin-3-yl)-1-((2-methyl-1-(4-(trifluoromethyl)-1H-pyrazol-1-yl)propan-2-yl)amino)-1-oxopropan-2-yl)-2-(4-(2-(1-methylcyclopropyl)imidazo[1,2-a]pyrimidin-6-yl)phenyl)cyclopropane-1-carboxamide] | ≤ 300
12 | Cn1cc(C[C@@H](NC(=O)[C@H]2C[C@@H]2c2ccc(-c3cnc4nn(C)cc4c3)cc2)C(=O)NC(C)(C)Cn2nc(C(F)(F)F)cc2-c2ncsn2)cn1 [Example 17, (1S,2S)-N-((R)-1-((1-(5-(1,2,4-Thiadiazol-3-yl)-3-(trifluoromethyl)-1H-pyrazol-1-yl)-2-methylpropan-2-yl)amino)-3-(1-methyl-1H-pyrazol-4-yl)-1-oxopropan-2-yl)-2-(4-(2-methyl-2H-pyrazolo [3,4-b]pyridin-5-yl)phenyl) cyclopropane-1-carboxamide] | ≤ 300
13 | Cn1cc(C[C@@H](NC(=O)[C@H]2C[C@@H]2c2ccc(-c3cnc4nn(C)cc4c3)cc2)C(=O)NC(C)(C)Cn2nc(C(F)(F)F)cc2-c2cccc(=O)[nH]2)cn1 [Example 64, (1S,2S)-N—((R)-1-((2-Methyl-1-(5-(6-oxo-1,6-dihydropyridin-2-yl)-3-(trifluoromethyl)-1H-pyrazol-1-yl)propan-2-yl)amino)-3-(1-methyl-1H-pyrazol-4-yl)-1-oxopropan-2-yl)-2-(4-(2-methyl-2H-pyrazolo[3,4-b]pyridin-5-yl)phenyl)cyclopropane-1-carboxamide] | ≤ 300
14 | CN(C(=O)[C@H]1C[C@@H]1c1ccc(NC(=O)Nc2ccc(F)cc2)cc1)[C@H](Cc1cnn(C)c1)C(=O)NC(C)(C)Cc1ccc(F)cc1 [Example 36, (1S,2S)-N-((R)-1-((1-(4-Fluorophenyl)-2-methylpropan-2-yl)amino)-3-(1-methyl-1H-pyrazol-4-yl)-1-oxopropan-2-yl)-2-(4-(3-(4-fluorophenyl)ureido)phenyl)-N-methylcyclopropane-1-carboxamide] | ≤ 300
15 | Cn1cc(C[C@@H](NC(=O)[C@H]2C[C@@H]2c2ccc(-c3cnc4nn(C)cc4c3)cc2)C(=O)NC(C)(C)Cn2nc(C(F)(F)F)cc2-c2cn[nH]c2)cn1 [Example 41, (1S,2S)-N—((R)-1-((2-Methyl-1-(5-(trifluoromethyl)-1′H,2H-[3,4′-bipyrazol]-2-yl)propan-2-yl)amino)-3-(1-methyl-1H-pyrazol-4-yl)-1-oxopropan-2-yl)-2-(4-(2-methyl-2H-pyrazolo[3,4-b]pyridin-5-yl)phenyl)cyclopropane-1-carboxamide] | ≤ 300
16 | Cc1ncc(-c2cc(C(F)(F)F)nn2CC(C)(C)NC(=O)[C@@H](Cc2cnn(C(F)F)c2)N2CCC3(CC3c3ccc(-c4cnc5nn(C)cc5c4)nc3C)C2=O)cn1 (single isomer, unassigned; isomer 1) [Example 111] | ≤ 300
17 | Cn1cc(C[C@@H](NC(=O)[C@H]2C[C@@H]2c2ccc(-c3cnc4nc(C(F)(F)F)cn4c3)cc2)C(=O)NC(C)(C)Cn2nc(C(F)(F)F)cc2-c2cn[nH]n2)cn1 [Example 26, (1S,2S)-N-((R)-1-((1-(5-(2H-1,2,3-Triazol-4-yl)-3-(trifluoromethyl)-1H-pyrazol-1-yl)-2-methylpropan-2-yl)amino)-3-(1-methyl-1H-pyrazol-4-yl)-1-oxopropan-2-yl)-2-(4-(2-(trifluoromethyl)imidazo [1,2-a]pyrimidin-6-yl)phenyl) cyclopropane-1-carboxamide] | ≤ 300
